The exact form of at least one protein or probe is not confirmed. Weaker means in comparison with the reference protein, sequence or condition of that experiment. Where a protein sequence is shown, tags need not be part of it. At least one verdict rests on a figure or table, not on a statement of the authors.
Biological target: T1, MecI (UniProt P68261)
T1 sequence (looked up, limits assumed): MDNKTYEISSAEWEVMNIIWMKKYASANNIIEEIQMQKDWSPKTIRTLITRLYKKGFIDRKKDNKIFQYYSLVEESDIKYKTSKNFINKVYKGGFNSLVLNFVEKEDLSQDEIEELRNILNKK
Test: EMSA
Conditions: DIG Gel Shift Kit (Roche), manufacturer's recommendations, pH and temperature not stated, recombinant protein

Sequence	binding result (plus MBP (control), no specific inhibition, label: DIG, probe letters rebuilt from the primers and the genome)	binding result (plus MecR2 at MecR2:MecI ratio below one (MecI in excess), label: DIG, probe letters rebuilt from the primers and the genome)	binding result (no MecR2)	binding result (plus MecR2 at ratio below one, same results as 212 bp)	binding result (plus excess MecR2, same results as 212 bp)
TATATACCAAACCCGACAACTACAACTATTAAAATAAGTGGAACAATTTTTATCTTTTTCATCAATATCCTCCTTATATAAGACTACATTTGTAGTATATTACAAATGTAGTATTTATGTCAAAATAATGTTATAATTTTTGTGATATGGAGGTGTAGAAGGTGTTATCATCTTTTTTAATGTTAAGTATAATCAGTTCATTGCTCACGATAT (double strand) [PmecA 212 bp]	binds	binds more weakly			
TTGACATAAATACTACATTTGTAATATACTACAAATGTA / AGACTACATTTGTAGTATATTACAAATGTAGTATTTATG [MI-Box 39 bp]			binds	binds more weakly	binds
